From US20020131970A1 (Scripps Research, published 2002) come the findings set out here.

The chains behind the UniProt entries cited, without tags or fusion partners. Where a name states a change or a piece, a line headed by the entry shows the natural chain unless it says otherwise. Residues count along the entry.
UniProt P02671: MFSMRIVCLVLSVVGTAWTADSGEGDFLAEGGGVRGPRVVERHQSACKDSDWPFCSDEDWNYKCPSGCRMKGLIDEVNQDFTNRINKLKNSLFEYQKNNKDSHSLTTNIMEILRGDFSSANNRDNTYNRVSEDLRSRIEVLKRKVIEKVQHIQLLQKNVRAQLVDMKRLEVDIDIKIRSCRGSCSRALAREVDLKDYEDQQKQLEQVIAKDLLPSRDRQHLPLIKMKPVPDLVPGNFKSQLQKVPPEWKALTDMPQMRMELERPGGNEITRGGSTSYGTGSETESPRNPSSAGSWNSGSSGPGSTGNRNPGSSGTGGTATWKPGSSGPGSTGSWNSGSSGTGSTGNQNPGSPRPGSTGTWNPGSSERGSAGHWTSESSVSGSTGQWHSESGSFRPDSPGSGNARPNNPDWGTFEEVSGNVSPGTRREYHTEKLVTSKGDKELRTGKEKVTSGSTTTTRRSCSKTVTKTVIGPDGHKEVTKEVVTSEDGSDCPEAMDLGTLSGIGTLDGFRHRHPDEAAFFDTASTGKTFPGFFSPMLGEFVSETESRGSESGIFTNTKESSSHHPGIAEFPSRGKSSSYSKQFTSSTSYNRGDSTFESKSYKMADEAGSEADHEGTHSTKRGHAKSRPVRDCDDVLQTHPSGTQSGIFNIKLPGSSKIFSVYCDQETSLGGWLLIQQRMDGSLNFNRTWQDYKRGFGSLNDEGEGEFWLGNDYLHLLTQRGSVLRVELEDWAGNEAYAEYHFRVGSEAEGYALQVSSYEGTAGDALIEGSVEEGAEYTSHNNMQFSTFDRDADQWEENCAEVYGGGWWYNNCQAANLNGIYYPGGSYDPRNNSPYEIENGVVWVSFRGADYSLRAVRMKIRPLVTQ
UniProt P02675: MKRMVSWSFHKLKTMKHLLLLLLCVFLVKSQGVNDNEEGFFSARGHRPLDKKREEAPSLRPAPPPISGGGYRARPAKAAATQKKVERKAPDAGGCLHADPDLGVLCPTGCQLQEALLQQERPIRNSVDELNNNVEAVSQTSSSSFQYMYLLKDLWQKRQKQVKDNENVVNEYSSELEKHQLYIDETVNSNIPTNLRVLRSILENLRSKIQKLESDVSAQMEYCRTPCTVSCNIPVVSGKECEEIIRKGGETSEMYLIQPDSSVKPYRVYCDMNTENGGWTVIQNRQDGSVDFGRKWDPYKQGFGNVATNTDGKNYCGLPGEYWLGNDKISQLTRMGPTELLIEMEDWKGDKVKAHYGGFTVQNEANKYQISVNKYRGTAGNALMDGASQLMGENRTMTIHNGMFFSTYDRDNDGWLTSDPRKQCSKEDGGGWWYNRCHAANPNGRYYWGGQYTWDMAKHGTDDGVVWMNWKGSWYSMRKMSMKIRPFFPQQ
UniProt P05362, residues 28-532: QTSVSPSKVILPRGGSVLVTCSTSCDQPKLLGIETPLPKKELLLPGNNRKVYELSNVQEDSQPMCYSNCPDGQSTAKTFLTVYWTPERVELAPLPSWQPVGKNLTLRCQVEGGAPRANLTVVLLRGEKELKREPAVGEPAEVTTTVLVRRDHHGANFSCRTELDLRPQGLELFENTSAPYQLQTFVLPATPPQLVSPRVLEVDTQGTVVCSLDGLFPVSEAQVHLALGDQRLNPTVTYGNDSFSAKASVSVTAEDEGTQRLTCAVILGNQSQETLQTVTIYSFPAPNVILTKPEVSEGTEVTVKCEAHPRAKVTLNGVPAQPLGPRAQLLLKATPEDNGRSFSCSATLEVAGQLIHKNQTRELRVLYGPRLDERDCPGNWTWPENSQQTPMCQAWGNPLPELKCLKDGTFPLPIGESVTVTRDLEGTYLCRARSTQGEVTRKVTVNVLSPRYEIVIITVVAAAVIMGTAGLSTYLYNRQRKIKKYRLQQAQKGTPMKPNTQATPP
UniProt P06756: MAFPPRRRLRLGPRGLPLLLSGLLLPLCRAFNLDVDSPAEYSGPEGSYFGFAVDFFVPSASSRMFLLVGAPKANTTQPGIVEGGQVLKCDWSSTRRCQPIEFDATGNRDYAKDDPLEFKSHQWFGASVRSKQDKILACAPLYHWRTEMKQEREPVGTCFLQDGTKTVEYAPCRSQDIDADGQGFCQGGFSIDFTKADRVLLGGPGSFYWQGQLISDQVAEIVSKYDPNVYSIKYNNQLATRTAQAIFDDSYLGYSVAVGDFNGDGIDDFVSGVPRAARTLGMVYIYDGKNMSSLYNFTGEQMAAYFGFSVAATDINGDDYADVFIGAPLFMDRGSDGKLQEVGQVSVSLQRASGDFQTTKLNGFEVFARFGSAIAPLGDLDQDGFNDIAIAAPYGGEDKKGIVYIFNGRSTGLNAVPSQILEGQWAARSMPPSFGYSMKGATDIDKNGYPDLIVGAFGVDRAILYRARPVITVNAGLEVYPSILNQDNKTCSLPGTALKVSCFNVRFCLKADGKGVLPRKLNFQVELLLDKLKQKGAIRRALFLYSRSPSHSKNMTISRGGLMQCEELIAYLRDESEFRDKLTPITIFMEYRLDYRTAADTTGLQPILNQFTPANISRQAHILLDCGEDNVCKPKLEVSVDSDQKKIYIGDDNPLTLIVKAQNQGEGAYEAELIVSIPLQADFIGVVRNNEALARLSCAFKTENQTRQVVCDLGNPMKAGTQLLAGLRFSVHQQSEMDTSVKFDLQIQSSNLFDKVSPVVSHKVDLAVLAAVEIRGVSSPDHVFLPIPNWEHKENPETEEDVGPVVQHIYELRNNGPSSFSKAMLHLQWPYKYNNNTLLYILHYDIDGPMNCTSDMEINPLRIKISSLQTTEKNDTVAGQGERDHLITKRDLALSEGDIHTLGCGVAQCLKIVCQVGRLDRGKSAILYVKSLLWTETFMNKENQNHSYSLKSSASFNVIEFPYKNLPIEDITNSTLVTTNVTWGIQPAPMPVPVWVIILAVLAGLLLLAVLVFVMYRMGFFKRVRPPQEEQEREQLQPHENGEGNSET

The target of assay [1] is T1, fibrinogen (purified from fresh plasma, fibronectin-free) (human) (UniProt P02671+P02675). Description: affinity chromatography and immunoprecipitation.
Assay [2] concerns the target T1, fibrinogen (purified from fresh plasma, fibronectin-free) (human). Description: affinity chromatography of 125I-labelled HUVEC lysate on fibrinogen Sepharose, RGE, RGD then EDTA elution.
Assay [3] shares this target. Description: fibrinogen Sepharose chromatography of HUVEC lysate precleared on RGD Sepharose.
Assay [4] has the same target. Description: affinity chromatography on fibrinogen Sepharose.
The target is the same in assay [5]. As to the kind of experiment: affinity chromatography of 125I-labelled HUVEC lysate on fibrinogen Sepharose, elution with RGD peptide.
Assay [6] addresses intercellular adhesion molecule 1 (ICAM-1), the RGD-independent fibrinogen receptor, native, on the surface of cells (HUVEC, JY lymphocytes) (human) (UniProt P05362). As to the kind of experiment: 125I-fibrinogen on untreated, TNF- or LPS-stimulated HUVEC monolayers.

No constants are given. Whether binding was seen depends on the method and setting. Some entries that bind do so weakly or less than the wild type.

Turning to “purified endothelial cell receptor (ECR), 90-95 kD, identified as ICAM-1, detergent-solubilised from HUVEC (also the 90-95 kD band of HUVEC and Daudi cell lysates on Western blots) (from UniProt P05362 28-532)”, the binding entry in assay [1], in assay [2] and in assay [3] was “binds” in each case.

For the substance “vitronectin receptor, alpha v/beta 3, from HUVEC lysate (from UniProt P06756 31-1048; P05106 27-788)”, the binding result in assay [4] and in assay [5] was “binds” each time.

For “fibrinogen (purified from fresh plasma, fibronectin-free) (from UniProt P02671 20-629; P02675 31-491) (ligand)”, the binding entry in assay [6] is on record as “binds”.
